Strings that start with PEPTIDE1 are HELM notation: dots part the residues, brackets hold end groups and non-standard residues.
Tests used:
[1] = peptide made by a vendor; conditions: whole synthesis, analytical RP-HPLC (C-18, acetonitrile/water gradient 5% to 20%)
[2] = general procedure: Fmoc solid-phase peptide synthesis; conditions: oxidative folding step, analytical RP-HPLC (C-18, acetonitrile/water gradient 5% to 20%)

Substance	final HPLC purity [1] [%]	final HPLC purity [2] [%]
PEPTIDE1{L.L.K.K.L.L.K.K.L.L.K.K.L.L.K.K.[am]}$$$$V2.0	>95	–
PEPTIDE1{L.L.K.K.L.L.K.K.K.C.[am]}|PEPTIDE2{L.L.K.K.L.L.K.K}$PEPTIDE1,PEPTIDE2,9:R3-8:R2$$$V2.0	>95	–
PEPTIDE1{L.L.K.K.L.L.K.K.K.C.[am]}|PEPTIDE2{L.L.K.K.L.L.K.K}|PEPTIDE3{L.L.K.K.L.L.K.K.K.C.[am]}|PEPTIDE4{L.L.K.K.L.L.K.K}$PEPTIDE1,PEPTIDE2,9:R3-8:R2|PEPTIDE3,PEPTIDE4,9:R3-8:R2|PEPTIDE1,PEPTIDE3,10:R3-10:R3$$$V2.0	–	95
